Among all 1,300 compounds or so, about 1,200 (92%) were called active. The rule behind the calls is not given here. The set was probably picked from earlier hits. Only a part is listed here, and it is no random draw. Results with a measured potency or affinity are listed apart.
assay: growth inhibitors of E. coli tolC mutant, dose response, strain BW25113 ΔtolC::kan (AID 617); details: OD615, at 100 µM (top of the series)
Method in brief: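 Test system: E. coli BW25113 ΔtolC::kan bacteria | Amount: 1:1000 diluted subculture inoculum | Medium: LB plus kanamycin | Timing: 20 h exposure at 37 °C | Signal: Absorbance at 615 nm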

Row | Structure (SMILES) | growth inhibition
1 | FC(F)(F)c1ccc2c(c1)nnn2C1CCN(Cc2nnnn2Cc2ccccc2)CC1 | inactive: 8.88%
